Measurements reported in PubChem BioAssay AID1224830 (NIAID, 2016)
Purpose: 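Regulators of TLR4 signalling towards TNF-alpha in macrophage-like cells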 (primary screen). Cell system: human THP-1 monocytic leukaemia cells, TNF dual-luciferase reporter clone, PMA-differentiated to macrophage-like cells. Reagents: siRNA pool against human genes, 50 nM. Duration: LPS for 4 h, given about 3 days after siRNA transfection. Conditions: bacterial LPS (TLR4 ligand), 10 ng/ml. Detection: 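Ratio of firefly to renilla light, scaled to the plate median and expressed as a robust z-score per replicate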. Scale: TNF reporter robust z-score: higher = stronger TNF reporter response to LPS. Rule for the call: 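a well is active when its z-score exceeds 2.8 or falls below -1.5; control wells carry no call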.
In all, the deposit lists about 18,000 reagents; this is a random part of them. About 2,900 of them (16%) count as active. 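Calls are made per well; low scores hint the gene aids the LPS response, high scores that it dampens it.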 A number with no mark means an inactive call. Repeated entries: four replicate wells of each siRNA pool.

no.	gene symbol	TNF reporter robust z-score
1	CAPN1	-0.03
2	CAPN1	1.54
3	CAPN1	1.97
4	CAPN1	0.69
5	SIGLEC8	2.39
6	SIGLEC8	0.04
7	SIGLEC8	4.16 (active)
8	SIGLEC8	8.4 (active)
9	IFT54	0.12
10	IFT54	2.27
11	IFT54	0.14
12	IFT54	1.42
13	RAP2C	-0.12
14	RAP2C	-0.69
15	RAP2C	-1.25
16	RAP2C	-0.74
17	ASB16	-0.6
18	ASB16	0.27
19	ASB16	-0.03
20	ASB16	2.44
21	NEFM	0.01
22	NEFM	-0.32
23	NEFM	-0.8
24	NEFM	0.47
25	PHAX	-1.13
26	PHAX	-0.43
27	PHAX	-0.74
28	PHAX	-0.42
29	M6PR	-0.02
30	M6PR	0.88
31	M6PR	-0.49
32	M6PR	0.36
33	ADH4	-0.87
34	ADH4	-0.91
35	ADH4	-0.83
36	ADH4	0.01
37	FCGBP	-0.7
38	FCGBP	0.01
39	FCGBP	-0.93
40	FCGBP	-0.34
41	EFCAB5	-0.7
42	EFCAB5	0
43	EFCAB5	-0.46
44	EFCAB5	-0.3
45	MYBBP1A	0.82
46	MYBBP1A	0.79
47	MYBBP1A	0.67
48	MYBBP1A	1.65
49	CHMP1A	0.18
50	CHMP1A	0.58
51	CHMP1A	0.17
52	CHMP1A	1.59
53	CXCR3	-1.2
54	CXCR3	-0.06
55	CXCR3	-1.77 (active)
56	CXCR3	-0.42
57	PGAP2	0.38
58	PGAP2	-0.61
59	PGAP2	0.15
60	PGAP2	0.37
61	TRERF1	-1.14
62	TRERF1	-1.1
63	TRERF1	-2.02 (active)
64	TRERF1	-0.54
65	SLC27A1	0.94
66	SLC27A1	0.32
67	SLC27A1	0.07
68	SLC27A1	1.62
69	PKP1	-1.58 (active)
70	PKP1	-1.34
71	PKP1	-1.44
72	PKP1	-0.96
73	FUZ	-0.07
74	FUZ	0.24
75	FUZ	-0.73
76	FUZ	-0.14
77	PRR22	-0.19
78	PRR22	-0.77
79	PRR22	-0.94
80	PRR22	-1.42
81	TOMM7	-0.63
82	TOMM7	0.39
83	TOMM7	0
84	TOMM7	-0.28
85	MROH9	0.63
86	MROH9	0.47
87	MROH9	0.18
88	MROH9	-0.18
89	PCDHB3	1.28
90	PCDHB3	-0.51
91	PCDHB3	0.51
92	PCDHB3	0.28
93	HINT2	0.09
94	HINT2	0.31
95	HINT2	0.14
96	HINT2	0.9
97	ATP5MC1	-0.23
98	ATP5MC1	-0.27
99	ATP5MC1	0.56
100	ATP5MC1	0.27
101	MCOLN1	0.54
102	MCOLN1	-0.36
103	MCOLN1	0.66
104	MCOLN1	2.69
105	RAB19	-0.96
106	RAB19	-0.64
107	RAB19	-0.41
108	RAB19	0.15
109	DPYS	-0.82
110	DPYS	-0.68
111	DPYS	-1.12
112	DPYS	-0.19
